Source: paper PMC8889267

B1: 5′-adenylylsulfate reductase-2 (APR2) (protein, UniProt P92981 67-454)
chain: ASTLIAPEVEEKGGEVEDFEQLAKKLEDASPLEIMDKALERFGDQIAIAFSGAEDVALIEYARLTGKPFRVFSLDTGRLNPETYRLFDAVEKQYGIRIEYMFPDAVEVQALVRNKGLFSFYEDGHQECCRVRKVRPLRRALKGLKAWITGQRKDQSPGTRSEIPIVQVDPVFEGLDGGVGSLVKWNPLANVEGADVWNFLRTMDVPVNALHAQGYVSIGCEPCTRPVLPGQHEREGRWWWEDAKAKECGLHKGNIKEEDGAADSKPAAVQEIFESNNVVALSKGGVENLLKLENRKEAWLVVLYAPWCPFCQAMEASYIELAEKLAGKGVKVAKFRADGEQKEFAKQELQLGSFPTILLFPKRAPRAIKYPSEHRDVDSLMSFVNLLR
B2: Rubisco assembly factor 2 (RAF2) (protein, UniProt Q9LU63 51-220)
chain: SNLAQDFLGDFGARDPYPEEIASQFGDKVLGCQSTEHKILIPNASVLSLSQLQCSPVSSSQPPLSGDDARTLLHKVLGWSIVDNEAGGLKIRCMWKVRDFGCGVELINRIHKVAEASGHYPSLHLESPTQVRAELFTSSIGGLSMNDFIMAAKIDDIKTSDLSPRKRAWA
B3: DEAD box RNA helicase (RH3) (EMB1138; globular stage) (protein, UniProt Q8L7S8 61-748)
chain: AVATPNSVLSEEAFKSLGLSDHDEYDLDGDNNNVEADDGEELAISKLSLPQRLEESLEKRGITHLFPIQRAVLVPALQGRDIIARAKTGTGKTLAFGIPIIKRLTEEAGDYTAFRRSGRLPKFLVLAPTRELAKQVEKEIKESAPYLSTVCVYGGVSYTIQQSALTRGVDVVVGTPGRIIDLIEGRSLKLGEVEYLVLDEADQMLAVGFEEAVESILENLPTKRQSMLFSATMPTWVKKLARKYLDNPLNIDLVGDQDEKLAEGIKLYAIATTSTSKRTILSDLITVYAKGGKTIVFTQTKRDADEVSLALSNSIATEALHGDISQHQRERTLNAFRQGKFTVLVATDVASRGLDIPNVDLVIHYELPNDPETFVHRSGRTGRAGKEGSAILMHTSSQKRTVRSLERDVGCHFEFISPPTVGDLLESSADQVVATLNGVHPDSIKFFSATAQKLYEEKGTDALAAALAHLSGFSQPPSSRSLLSHEKGWVTLQLIRDPTNARGFLSARSVTGFLSDLYRTAADEVGKIFLIADDRIQGAVFDLPEEIAKELLEKDVPEGNSLSMITKLPPLQDDGPSSDNYGRFSSRDRMPRGGGGSRGSRGGRGGSSRGRDSWGGDDDRGSRRSSGGGSSWSRGGSSSRGSSDDWLIGGRSSSSSRAPSRERSFGGSCFICGKSGHRATDCPDKRGF
B4: CLPT1 (protein, UniProt Q93WL3 65-238)
chain: STVLNVPIAQPENGSSDKIPKWSARAIKSLAMGELEARKLKYPSTGTEAILMGILVEGTSTVAKFLRGNGVTLFKVRDETLSLLGKSDMYFFSPEHPPLTEPAQKAIAWAIDEKNKSDVDGELTTAYLLLGVWSQKDSAGRQILEKLGFNEDKAKEVEKSMNEDVDLSFKKQGQ
B5: CPN10–1 (protein, UniProt O80504 40-139)
chain: IKAISTKWEPTKVVPQADRVLVRLEDLPIKSSGGVLLPKAAVKFERYLTGEIISVGSEVGQQVGPGKRVLFSDVSAYEVDLGTDARHCFCKESDLLALVE
B6: tRNA/rRNA methyltransferase (AT4G36390.1) (protein, UniProt Q8H0V1 1-640)
chain: MASSSLSSLSSILSNPHGCSLCFKASTQRCFALRFLSSKATHASSSSSSALLPRCRSSTHRLTQKPINRKKGFSLNLSRSFSISQIASSGKFDGPSLHQFVSNAQAHASLTTPETESESTLDSDIASKGRIYHETYGCQMNINDMEIVLAIMKNSGYKEVVTDPESAEVIFVNTCAIRENAEQRVWQRLNYFWFLKREWKVNAATGRAKSLKPPKVVVLGCMAERLKDKILDSDKMVDVVCGPDAYRDLPRLLEEVDYGQKGINTLLSLEETYADISPVRISENSITAFVSVMRGCNNMCAFCIVPFTRGRERSRPVESIIREVGELWESGVKEVTLLGQNVNSYNDDSADRESGANWEYSEGFSSRCKVKNMGLRFADLLDRLSVEFPEMRFRFTSPHPKDYPDELLYLMRDRHNICNLIHLPAQSGNSRILEQMRRGYTREAYLDLVKKIRSIIPDVAITSDFITGFCGETEEEHQETLSLVRAVGYDMAYMFAYSMREKTHAHRNYTDDVPEEVKQRRLTELIDAFRETTGPCYDSQVGSTQLVLVEGPNKRAPETELIGKTDKGHRVSFVTKPLFDKACLLDGDDLKRNPGIGDFVEVQIEKSTRASLFGEALAISKMSLFHDVGVVDAVVASCAS
B7: DUF760-6 (clade 1) (protein, UniProt Q9LVJ0 76-421)
chain: ASSASNDASSGSSPKPIAPLQLQSPAGQFLSQILVSHPHLVPAAVEQQLEQLQTDRDSQGQNKDSASVPGTDIVLYRRIAELKENERRRTLEEILYALVVQKFMEANVSLVPSVSPSSDPSGRVDTWPTKVEKLERLHSPEMYEMIHNHLALILGSRMGDLNSVAQISKLRVGQVYAASVMYGYFLKRVDQRFQLEKTMKILPGGSDESKTSVEQAEGTATYQAAVSSHPEVGAFAGGVSAKGFGSEIKPSRLRSYVMSFDAETLQRYATIRSREAVGIIEKHTEALFGKPEIVITPEGTVDSSKDEQIKISFGGMKRLVLEAVTFGSFLWDVESHVDARYHFVLN
B8: DEAD box RNA helicase, RH39 (nara12) 23S rRNA processing (protein, UniProt Q56X76 1-621)
chain: MVGASRTILSLSLSSSLFTFSKIPHVFPFLRLHKPRFHHAFRPLYSAAATTSSPTTETNVTDPDQLKHTILLERLRLRHLKESAKPPQQRPSSVVGVEEESSIRKKSKKLVENFQELGLSEEVMGALQELNIEVPTEIQCIGIPAVMERKSVVLGSHTGSGKTLAYLLPIVQLMREDEANLGKKTKPRRPRTVVLCPTRELSEQVYRVAKSISHHARFRSILVSGGSRIRPQEDSLNNAIDMVVGTPGRILQHIEEGNMVYGDIAYLVLDEADTMFDRGFGPEIRKFLAPLNQRALKTNDQGFQTVLVTATMTMAVQKLVDEEFQGIEHLRTSTLHKKIANARHDFIKLSGGEDKLEALLQVLEPSLAKGSKVMVFCNTLNSSRAVDHYLSENQISTVNYHGEVPAEQRVENLKKFKDEEGDCPTLVCTDLAARGLDLDVDHVVMFDFPKNSIDYLHRTGRTARMGAKGKVTSLVSRKDQMLAARIEEAMRNNESLESLTTDNVRRDAARTHITQEKGRSVKQIREVSKQRNSRDKPSSSSPPARSTGGKTPVRKSSSSSFSKPRKASSPPEKSSKPKRKILKTVGSRSIAARGKTGSDRRPGKKLSVVGFRGKSSSARAS
B9: nucleoid protein (pTAC10) (protein, UniProt F4JF21 41-668)
chain: GFSSDEFPVDETFLEKFGPKDKDTEDEARRRNWIERGWAPWEEILTPEADFARKSLNEGEEVPLQSPEAIEAFKMLRPSYRKKKIKEMGITEDEWYAKQFEIRGDKPPPLETSWAGPMVLRQIPPRDWPPRGWEVDRKELEFIREAHKLMAERVWLEDLDKDLRVGEDATVDKMCLERFKVFLKQYKEWVEDNKDRLEEESYKLDQDFYPGRRKRGKDYEDGMYELPFYYPGMVCEGTVTTLHLYQGAFVDIGGVHEGWVPIKGNDWFWIRHFIKVGMHVIVEITAKRDPYRFRFPLELRFVHPNIDHMIFNKFDFPPIFHRDGDTNPDEIRRDCGRPPEPRKDPGSKPEEEGLLSDHPYVDKLWQIHVAEQMILGDYEANPAKYEGKKLSELSDDEDFDEQKDIEYGEAYYKKTKLPKVILKTSVKELDLEAALTERQHHNKLMMEAKARGEGYKIDKLRRNIEMDEYDFLHWRRSLEEREALLRDISSRQALGLPLEEPGRYKPGSFFGKDQYDPTSALYQYDYWGEPKNSEISKQERMKDAHNKSIVGKGNVWYDMSYDDAIKQTIEKRKEGSTLASQEEETESEEEEEDDDDFDDFDYSILSDESSIGYSEQQPLVNGTQVLTD

The binders below were run against T1, CLPC1-TRAP-STREPII (Arabidopsis thaliana) (UniProt Q9FI56) (assay: affinity purification with mass spectrometry; STREPII-tagged CLPC1-WT or CLPC1-TRAP from soluble leaf proteome of transgenic Arabidopsis rosettes, nondenaturing; StrepTactinXT beads, 50 mM Hepes-KOH pH 8.0, 15% glycerol, 10 mM MgCl2, 75 mM NaCl, eluted with 2.5 mM biotin; SDS-PAGE, in-gel trypsin digest, LC-MS/MS, spectral counting; three biological replicates; CGEP-STREP eluates as negative control).
T1 sequence: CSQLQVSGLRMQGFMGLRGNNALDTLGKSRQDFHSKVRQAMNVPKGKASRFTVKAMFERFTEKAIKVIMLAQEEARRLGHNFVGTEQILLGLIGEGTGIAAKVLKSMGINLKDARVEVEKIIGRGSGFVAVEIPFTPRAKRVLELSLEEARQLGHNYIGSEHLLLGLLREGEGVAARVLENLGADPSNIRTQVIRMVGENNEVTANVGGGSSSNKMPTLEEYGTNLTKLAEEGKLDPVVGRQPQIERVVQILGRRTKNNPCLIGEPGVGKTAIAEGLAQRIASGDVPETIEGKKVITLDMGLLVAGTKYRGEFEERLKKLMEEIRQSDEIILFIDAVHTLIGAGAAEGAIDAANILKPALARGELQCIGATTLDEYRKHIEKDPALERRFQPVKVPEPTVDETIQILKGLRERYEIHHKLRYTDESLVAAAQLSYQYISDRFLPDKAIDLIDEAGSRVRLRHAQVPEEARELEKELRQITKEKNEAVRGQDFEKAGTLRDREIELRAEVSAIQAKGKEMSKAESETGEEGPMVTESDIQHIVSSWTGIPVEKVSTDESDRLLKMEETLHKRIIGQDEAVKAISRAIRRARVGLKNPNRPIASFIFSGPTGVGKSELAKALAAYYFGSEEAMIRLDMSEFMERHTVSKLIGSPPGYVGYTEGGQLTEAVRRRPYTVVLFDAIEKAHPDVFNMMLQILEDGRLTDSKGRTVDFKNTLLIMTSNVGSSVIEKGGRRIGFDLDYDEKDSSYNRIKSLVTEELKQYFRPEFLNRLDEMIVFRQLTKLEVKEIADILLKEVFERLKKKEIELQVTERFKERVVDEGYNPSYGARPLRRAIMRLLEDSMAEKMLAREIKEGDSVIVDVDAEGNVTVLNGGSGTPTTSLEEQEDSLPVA

binding, binds:
B1
B2
B3
B4
B5
B6
B7
B8
B9

No constants are given. Whether binding was seen depends on the method and setting. Binding seen in cells or lysates may run through a third protein. A yes stands for co-enrichment or nearness to the bait. Other partners may have been found. Tags and fused reporters may be left off the sequences shown.
